# Data from PubChem BioAssay AID540276 (National Center for Advancing Translational Sciences (NCATS), 2011).
# Out of some 300,000 compounds screened, about 5,400 (1.8%) were called active. The inconclusive results got no clear call from the source; some entries with a clear call stand among them for comparison. The call rests on the fitted dose curve; tested in HEK293 cells. Potencies of inconclusive entries are doubtful fits and often do not repeat.
# Assay: qHTS for inhibitors of binding or entry into cells for Marburg Virus
# Conditions: Marburg virus pseudotyped entry inhibition, cell reporter; series mostly up to 37.8 µM
# Potency means the concentration at half of the fitted maximal effect.
row,Compound,Potency
1,O=C(Nc1ccc(N2CCN(Cc3ccccc3)CC2)cc1)c1ncn[nH]1,"inconclusive: 2.91 µM [inhibitor, partial curve, poor fit]"
2,COc1ccc(COC(=O)NN=C2C[C@@H](O)[C@@H](O)[C@@H]3[C@H]4C(=O)N(Cc5ccccc5)C(=O)[C@@H]4CC[C@@H]23)cc1,inactive
3,O=c1c2cccnc2n(-c2ccccc2)n1Cc1c(Cl)cccc1Cl,"inconclusive: 3.55 µM [activator, single point]"
4,NC(=O)c1ccccc1NC(=O)C(c1ccccc1)c1ccccc1,"inconclusive: 35.5 µM [inhibitor, single point]"
5,O=C1COc2c1ccc(O)c2O,"inconclusive: 7.94 µM [inhibitor, partial curve, poor fit]"
6,Cc1ccc2c(COC(=O)c3ccc(C)c(C)c3)cc(=O)oc2c1,"inconclusive: 4.47 µM [activator, full curve]"
7,Cc1cccc(C(C)C)c1NC(=O)CN1C(=O)NC(Cc2ccccc2)C1=O (centres undefined),"inconclusive: 12.6 µM [activator, single point]"
8,OCCCNc1nc(-c2ccc(Cl)cc2)nnc1-c1ccccc1,"inconclusive: 1.12 µM [activator, partial curve]"
9,CCOC(=O)c1cc(-c2ccccc2)sc1NC(=O)C(C)N1C(=O)NC(C)(c2ccc(Cl)cc2)C1=O (centres undefined),"inconclusive: 35.5 µM [inhibitor, single point]"
10,O=C(OCC(O)CN1CCCCC1)C12CC3CC(CC(C3)C1)C2 (centres undefined),inactive
11,COc1cccc(-c2nc(-c3ccccc3)nc(N3CCN(C)CC3)c2C#N)c1,"inconclusive: 17.8 µM [inhibitor, single point]"
12,CN(C)CCP(=O)(c1ccccc1)c1ccccc1,inactive
13,Cc1coc2c(C)c3oc(=O)c(CC(=O)NCCc4ccc(Cl)cc4)c(C)c3cc12,inactive
14,CC(C)CN(CC(C)C)C(=O)Nc1ccc(F)cc1F,"inconclusive: 6.31 µM [inhibitor, single point]"
15,COc1ccc(CCN2C(=O)c3[nH]nc(-c4ccccc4O)c3C2c2cccc(Cl)c2)cc1 (centres undefined),"inconclusive: 35.5 µM [inhibitor, single point]"
16,CC(C)(C)n1nnnc1CN1CCN(C(c2ccccc2)c2ccccc2)CC1,"inconclusive: 35.5 µM [inhibitor, single point]"
17,Cc1ccnc(NC(=O)Cc2ccc(F)cc2)n1,"inconclusive: 4.47 µM [activator, partial curve, poor fit]"
18,CS(=O)(=O)NN1C(=O)c2ccccc2NC1c1cccc(O)c1 (centres undefined),inactive
19,CCN1CCN(c2ccc(S(=O)(=O)N3CCCCC3)cc2NC(=O)Cc2c(F)cccc2Cl)CC1,"inconclusive: 35.5 µM [inhibitor, single point]"
20,Nc1ncnc(N2CCOCC2)n1,"inconclusive: 1.78 µM [activator, full curve]"
21,CCN(CC)CCN(C(=O)c1ccc(S(=O)(=O)N(C)C2CCCCC2)cc1)c1nc2c(C)cccc2s1,"inconclusive: 14.1 µM [inhibitor, single point]"
22,O=C(CSc1ncnc2c1cnn2-c1ccccc1Cl)N1CCN(C(=O)c2ccco2)CC1,inactive
23,Cc1nc(N)[nH]c(=O)c1CCCNc1ccc([N+](=O)[O-])cc1,"inconclusive: 10 µM [activator, partial curve, poor fit]"

# As a short view, part of the list above.
row,Compound,Potency
20,Nc1ncnc(N2CCOCC2)n1,"inconclusive: 1.78 µM [activator, full curve]"
21,CCN(CC)CCN(C(=O)c1ccc(S(=O)(=O)N(C)C2CCCCC2)cc1)c1nc2c(C)cccc2s1,"inconclusive: 14.1 µM [inhibitor, single point]"
22,O=C(CSc1ncnc2c1cnn2-c1ccccc1Cl)N1CCN(C(=O)c2ccco2)CC1,inactive

# Later entries.

row,Compound,Potency
1,COc1cccc(OC)c1C(=O)N1CCN(S(=O)(=O)c2ccccc2)CC1,"inconclusive: 3.16 µM [activator, single point]"
2,COc1ccc(C(=O)Nc2nc3c(s2)CCCC3)cc1S(=O)(=O)N1CCCc2ccccc21,"inconclusive: 2.91 µM [inhibitor, full curve, poor fit]"
3,COc1ccc(-n2c(SCC(=O)Nc3ccccc3C)nc(O)c(Cc3ccccc3)c2=O)cc1,inactive
4,O=C(C[n+]1ccc(C(=O)N/N=C/c2ccc(OCc3ccccc3)cc2)cc1)c1ccccc1,"inconclusive: 2.31 µM [activator, full curve, poor fit]"
5,Cc1cccc(OCC(=O)Nc2ccccc2N2CCN(C)CC2)c1,inactive
6,O=C(COc1ccccc1)NC1CCN(Cc2ccccc2)CC1,"inconclusive: 29.1 µM [inhibitor, single point]"
7,CCCSc1nnc(Sc2nnnn2-c2ccccc2)s1,"inconclusive: 20.6 µM [inhibitor, partial curve, poor fit]"
8,Nc1nc(-c2ccc(Cl)cc2)cc(C(F)(F)F)n1,inactive
9,COCCN(C(=O)C(C)C)c1nnc(-c2cccc(C)c2)s1,inactive
10,O=C1CCCC2=C1C(c1ccccc1)CC(=O)N2c1ccccc1 (centres undefined),"inconclusive: 5.62 µM [activator, single point]"
11,CCOC(=O)C1=NNC2C(=O)N(CC)C(=O)C12 (centres undefined),inactive
12,Cn1nc(CC(=O)N2CCN(c3ccccc3)CC2)c2ccccc2c1=O,"inconclusive: 6.51 µM [activator, single point]"
13,Cc1cccc(NC(=O)CNC(=O)c2cc(C3CC3)nn2-c2ccccc2)c1C,inactive
14,Cc1nc2c(-c3ccccc3)c(C)[nH]n2c(=O)c1Cc1ccccc1,"inconclusive: 10 µM [inhibitor, partial curve, poor fit]"
15,COc1ccc(Cl)cc1NC(=O)CCS(=O)(=O)c1cccc2nonc12,inactive
16,Cc1ccsc1C(=O)OCc1nc2ccsc2c(=O)[nH]1,inactive
17,O=C(O/N=C1/CCSc2ccccc21)c1ccccc1,inactive
18,Cc1ccc(C)c(OCC(=O)O/N=C(\N)c2cccnc2)c1,inactive
19,COc1ccc(-c2nn(-c3ccccc3)cc2CN2CCCO2)c(F)c1,inactive
20,O=C(Nc1ccnn1C1CCN(C/C=C/c2ccccc2)CC1)c1cccc(F)c1,"inconclusive: 35.5 µM [inhibitor, single point]"
21,COc1ccc(CCNC(=O)c2cc(S(=O)(=O)N(C)c3ccccc3)ccc2Cl)cc1,"inconclusive: 35.5 µM [inhibitor, single point]"
22,COc1ccc(N=Cc2c(O)[nH]c3ccccc23)cc1,"inconclusive: 1.3 µM [activator, single point]"
23,O=c1c(-c2nnc(SCc3ccc(Cl)cc3Cl)o2)cccn1Cc1ccccc1,"inconclusive: 29.1 µM [inhibitor, single point]"

# Grouped by structure: the compounds so far with a furan ring, fused or not.
row,Compound,Potency
13,Cc1coc2c(C)c3oc(=O)c(CC(=O)NCCc4ccc(Cl)cc4)c(C)c3cc12,inactive
22,O=C(CSc1ncnc2c1cnn2-c1ccccc1Cl)N1CCN(C(=O)c2ccco2)CC1,inactive

# (list continues)

row,Compound,Potency
1,Cc1cn(C2CCCO2)c(=O)nc1N (centres undefined),"inconclusive: 0.199 µM [activator, full curve, poor fit]"
2,Cc1ccc(C)c(/C(O)=C2/C(=O)C(=O)N(CCN3CCOCC3)C2c2ccco2)c1 (centres undefined),inactive
3,Cc1ccc(-c2nn(C)c(=O)c3ccccc23)cc1S(=O)(=O)N1CCOCC1,inactive
4,Cc1ccc(SCC(=O)NC2CCCCCC2)cc1,"inconclusive: 1.26 µM [inhibitor, single point]"
5,COc1ccc(/C=N/NC(=O)c2cccc(NC(=O)c3ccc(Cl)cc3)c2)c(OC)c1,"inconclusive: 3.66 µM [activator, single point]"
6,Cc1ccc(-c2[nH]c3ccccc3c2SCCNC(=O)c2ccc(S(=O)(=O)N(C)C)cc2)cc1,"inconclusive: 17.8 µM [inhibitor, partial curve, poor fit]"
7,CCCOC(=O)CSC1=C(C#N)[C@H](c2ccccc2OC)[C@H](C#N)C(=O)N1,inactive
8,N#C/C(=N\Nc1ccc(F)cc1)C(=N)N1CCCCC1,"inconclusive: 1.46 µM [activator, full curve]"
9,O=C(COc1ccc2ccccc2c1)N1CCN(c2ccccc2O)CC1,inactive
10,COc1ccc(C(=O)c2ccc(CC#N)s2)cc1,"inconclusive: 22.4 µM [activator, partial curve, poor fit]"
11,CCN(CC(=O)Nc1cc(Cl)ccc1C)C(=O)CSCc1ccc(C)cc1,"inconclusive: 11.2 µM [inhibitor, partial curve, poor fit]"
12,O=C(CNc1ccc(Br)cc1)Nc1cccc(S(=O)(=O)N2CCCC2)c1,inactive
13,O=C(Nc1ccc(O)c(-c2nc3ccccc3o2)c1)C1(c2ccccc2)CCCC1,"inconclusive: 18.3 µM [inhibitor, single point]"
14,Cc1ccc(O)c(NC(=O)c2cc(-c3ccc4c(c3)OCO4)on2)c1,inactive
15,O=C(C1CC1)N1CCc2cc(Br)cc(S(=O)(=O)NC3CCCCC3)c21,"inconclusive: 10.3 µM [inhibitor, partial curve, poor fit]"
16,O=S(=O)(NCc1cc(-c2ccccc2)no1)c1ccccc1Cl,"inconclusive: 0.355 µM [inhibitor, partial curve, poor fit]"
17,O=C(NCCc1ccc(Cl)cc1)C1CCN(S(=O)(=O)c2ccc(Br)s2)CC1,inactive
18,CN1/C(=C\C(=O)Nc2ccc(Cl)cc2)C(C)(C)c2ccccc21,"inconclusive: 14.1 µM [inhibitor, single point]"
19,COCCn1c(C)cc(C(=O)CSc2nc(C)cc(C)c2C#N)c1C,"inconclusive: 35.5 µM [inhibitor, single point]"
20,Cc1cccc(NC(=O)CSCC(=O)Nc2cc(S(=O)(=O)N3CCOCC3)ccc2OC(C)C)c1,inactive
21,Cn1c(Cc2cccc3ccccc23)nnc1SCC(=O)N1CCN(c2ccccc2)CC1,"inconclusive: 29.1 µM [inhibitor, single point]"
22,COc1ccc(CNC(=O)c2cc3c(=O)n4ccccc4nc3n(CC3CCCO3)c2=N)cc1 (centres undefined),"inconclusive: 9.2 µM [inhibitor, partial curve]"
23,Cc1noc(C)c1CSc1ncnc2sc(C)c(C)c12,"inconclusive: 35.5 µM [inhibitor, partial curve, poor fit]"
